Among the data in PMC10141581 are binding values, retold here.

By UniProt entry, the sequences of proteins in these tests, tags left out. Residues count along the entry.
UniProt P63104, residues 1-230: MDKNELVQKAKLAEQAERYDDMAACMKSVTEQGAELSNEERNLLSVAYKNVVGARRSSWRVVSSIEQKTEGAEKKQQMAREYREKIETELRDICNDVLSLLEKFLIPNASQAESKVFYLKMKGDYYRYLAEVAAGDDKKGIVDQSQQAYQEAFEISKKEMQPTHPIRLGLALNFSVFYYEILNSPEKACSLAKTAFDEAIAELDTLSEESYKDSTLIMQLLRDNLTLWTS
UniProt O96013: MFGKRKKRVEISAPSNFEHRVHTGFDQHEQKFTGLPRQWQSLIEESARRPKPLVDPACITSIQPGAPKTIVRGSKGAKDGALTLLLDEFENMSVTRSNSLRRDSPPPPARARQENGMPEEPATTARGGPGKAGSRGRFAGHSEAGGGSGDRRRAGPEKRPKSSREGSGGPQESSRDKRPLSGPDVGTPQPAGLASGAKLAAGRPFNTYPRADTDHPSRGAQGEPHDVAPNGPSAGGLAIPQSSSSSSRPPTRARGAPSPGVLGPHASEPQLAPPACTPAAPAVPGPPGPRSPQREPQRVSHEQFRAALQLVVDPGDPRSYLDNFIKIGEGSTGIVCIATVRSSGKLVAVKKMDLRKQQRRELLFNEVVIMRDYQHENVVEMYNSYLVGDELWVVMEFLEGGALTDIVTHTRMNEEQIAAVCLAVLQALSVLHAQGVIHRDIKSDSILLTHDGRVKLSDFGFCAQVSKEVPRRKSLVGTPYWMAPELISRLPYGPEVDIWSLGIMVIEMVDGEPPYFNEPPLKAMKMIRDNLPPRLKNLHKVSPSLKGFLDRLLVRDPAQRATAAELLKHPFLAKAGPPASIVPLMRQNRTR
UniProt Q9UHD2: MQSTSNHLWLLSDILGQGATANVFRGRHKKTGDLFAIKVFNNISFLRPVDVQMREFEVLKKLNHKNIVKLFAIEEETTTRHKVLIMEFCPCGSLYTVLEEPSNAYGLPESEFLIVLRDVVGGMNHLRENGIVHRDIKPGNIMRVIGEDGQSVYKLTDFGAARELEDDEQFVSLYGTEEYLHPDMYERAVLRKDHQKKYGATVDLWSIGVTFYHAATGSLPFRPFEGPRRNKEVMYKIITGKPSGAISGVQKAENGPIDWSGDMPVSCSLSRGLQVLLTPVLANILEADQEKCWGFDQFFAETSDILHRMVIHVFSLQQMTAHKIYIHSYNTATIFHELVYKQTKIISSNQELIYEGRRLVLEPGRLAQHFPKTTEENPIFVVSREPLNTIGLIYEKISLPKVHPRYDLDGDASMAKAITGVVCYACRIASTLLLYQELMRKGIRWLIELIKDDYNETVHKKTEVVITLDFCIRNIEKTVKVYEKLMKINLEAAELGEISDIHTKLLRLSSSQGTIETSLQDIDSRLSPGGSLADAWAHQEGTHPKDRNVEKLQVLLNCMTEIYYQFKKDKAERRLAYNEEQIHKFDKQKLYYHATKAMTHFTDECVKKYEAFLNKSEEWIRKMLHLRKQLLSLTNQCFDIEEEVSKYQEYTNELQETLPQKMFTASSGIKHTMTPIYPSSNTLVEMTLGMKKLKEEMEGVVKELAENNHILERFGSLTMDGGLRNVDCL
UniProt Q96SW2: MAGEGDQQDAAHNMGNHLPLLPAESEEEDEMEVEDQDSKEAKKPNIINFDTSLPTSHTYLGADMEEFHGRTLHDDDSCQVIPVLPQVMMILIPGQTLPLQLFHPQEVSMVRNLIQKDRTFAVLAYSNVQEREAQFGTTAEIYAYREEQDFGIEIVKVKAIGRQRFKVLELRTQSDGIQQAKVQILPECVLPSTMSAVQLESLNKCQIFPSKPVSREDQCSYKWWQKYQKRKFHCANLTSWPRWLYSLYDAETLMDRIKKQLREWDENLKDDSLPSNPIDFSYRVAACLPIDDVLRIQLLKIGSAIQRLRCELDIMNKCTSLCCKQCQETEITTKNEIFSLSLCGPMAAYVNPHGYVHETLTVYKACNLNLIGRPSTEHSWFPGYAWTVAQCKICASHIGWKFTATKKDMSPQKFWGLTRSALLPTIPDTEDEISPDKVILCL
UniProt Q07812: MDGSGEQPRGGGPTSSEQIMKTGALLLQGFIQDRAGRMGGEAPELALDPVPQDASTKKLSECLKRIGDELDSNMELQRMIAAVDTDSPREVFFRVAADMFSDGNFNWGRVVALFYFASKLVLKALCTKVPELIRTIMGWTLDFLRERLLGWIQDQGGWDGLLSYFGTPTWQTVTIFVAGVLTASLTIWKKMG
UniProt P08670: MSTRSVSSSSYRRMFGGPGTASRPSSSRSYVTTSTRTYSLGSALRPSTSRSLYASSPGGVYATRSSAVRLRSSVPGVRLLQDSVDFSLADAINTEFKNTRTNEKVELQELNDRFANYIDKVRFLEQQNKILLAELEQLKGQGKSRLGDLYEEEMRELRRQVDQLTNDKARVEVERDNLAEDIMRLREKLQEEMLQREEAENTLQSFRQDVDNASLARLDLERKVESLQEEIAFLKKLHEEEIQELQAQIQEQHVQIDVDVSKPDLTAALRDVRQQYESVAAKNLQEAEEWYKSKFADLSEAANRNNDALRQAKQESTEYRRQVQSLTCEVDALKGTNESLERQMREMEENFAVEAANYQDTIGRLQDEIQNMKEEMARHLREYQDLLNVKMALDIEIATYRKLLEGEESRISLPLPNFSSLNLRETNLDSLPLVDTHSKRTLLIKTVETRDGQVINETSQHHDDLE

No constants are given. Whether binding was seen depends on the method and setting. Binding seen in cells or lysates may run through a third protein. A yes stands for co-enrichment or nearness to the bait. Other partners may have been found.

In one assay the target is 14-3-3ζ WT (human) (UniProt P63104). The assay is described as follows: affinity purification with mass spectrometry; 14-3-3ζ (WT, pSer58, nhpSer58) covalently coupled to NHS-Sepharose, incubated with HEK293T lysate 2 h at 25 °C (50 mM Tris pH 7.5, 150 mM NaCl, 50 nM Calyculin A), washed with 350 mM NaCl, eluted with 6 M guanidine-HCl; label-free quantitative MS; only the target purified.

A further assay addresses 14-3-3ζ pSer58 (human) (UniProt P63104). The description is as above.

Take PAK4 (from UniProt O96013 1-591): the binding entry with 14-3-3ζ WT (human) is on record as “binds”.

For the substance TBK1 (from UniProt Q9UHD2 1-729), the binding entry with 14-3-3ζ WT (human) is “binds”.

On to “cereblon (CRBN), endogenous (from UniProt Q96SW2 1-442)”, for which the binding entry with 14-3-3ζ pSer58 (human) is “binds”.

Take BAX (from UniProt Q07812 1-192): the binding entry with 14-3-3ζ WT (human) was “binds”.

Take vimentin (from UniProt P08670 1-466): the binding result with 14-3-3ζ WT (human) is “binds”.
